The text below walks through data of publication PMC5717197, “Mechanistic insight into TRIP13-catalyzed Mad2 structural transition and spindle checkpoint silencing” (Nature Communications, 2017).

Sequences of proteins named here, by UniProt entry; tags and fusion partners are left off. A change or cut given only in a name is not applied to a line headed by its entry.
UniProt Q13257, whole entry, looked up, stated change not applied: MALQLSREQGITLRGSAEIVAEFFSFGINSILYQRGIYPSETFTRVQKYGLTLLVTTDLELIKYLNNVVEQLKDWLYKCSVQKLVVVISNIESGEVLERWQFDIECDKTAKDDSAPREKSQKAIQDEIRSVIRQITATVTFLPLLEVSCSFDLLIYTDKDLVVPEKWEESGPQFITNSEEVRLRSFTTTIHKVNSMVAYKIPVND

No constants are given. Whether binding was seen depends on the method and setting. Some results given as binding are weak or reduced against the parent protein; the word gives no strength. Tags and fused reporters may be left off the sequences shown.

The test has as its target T1, His6-ΔN35-p31^comet (co-expressed with Mad2^L13A) (human) (UniProt Q15013).
T1 sequence: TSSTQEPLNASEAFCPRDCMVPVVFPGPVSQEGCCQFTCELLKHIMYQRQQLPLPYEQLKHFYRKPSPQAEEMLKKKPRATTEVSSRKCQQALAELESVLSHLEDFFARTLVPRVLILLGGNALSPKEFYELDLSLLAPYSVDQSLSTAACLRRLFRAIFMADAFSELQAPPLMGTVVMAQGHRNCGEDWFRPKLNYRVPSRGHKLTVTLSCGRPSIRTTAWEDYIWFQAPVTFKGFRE
Briefly: co-purification of co-expressed proteins; His6-ΔN35-p31comet and Mad2 L13A co-expressed in E. coli BL21 (DE3); Ni-NTA, TEV cleavage, Resource Q, Superdex 200 Increase.

On to Mad2^L13A (from UniProt Q13257 1-205), for which the binding result is given as “binds”.
